In the data set the target is T1, ChroM1 DNA-binding domain recombinant protein (rP, residues 2333-2480) (Homo sapiens) (UniProt Q3L8U1).
T1 sequence: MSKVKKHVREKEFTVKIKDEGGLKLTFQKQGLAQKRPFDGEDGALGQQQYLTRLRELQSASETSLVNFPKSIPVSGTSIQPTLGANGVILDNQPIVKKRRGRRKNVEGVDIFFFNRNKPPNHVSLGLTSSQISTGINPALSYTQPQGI
Briefly: EMSA. Conditions: binding reduced by distamycin A; purified recombinant protein. A general note: In EMSA bound probe runs differently from free probe, usually more slowly.

Where a protein sequence is shown, tags need not be part of it.

Take “CGCATGATATACTTCACCTATTTTTTGTCTCCTTAATATGTATATATATATATATATATATATATATATATATATATATATATATATATATACACATATATGTGTGTGTGTATGTGCGTGTGCATGTTTAACTTTTAATTCAGTTAAAAACTTTTTTCTATTTGTTTTTCATCTGGATATTTGATTCTGCATATCCTAGCCCAA (double strand) [ERalpha distal promoter PCR fragment (204 bp)]”: the binding result is listed as “binds”.

The values above are taken from patent publication US20050250717, “Chromatin remodeling protein as a marker expressed by stromal progenitor cells” (Ramot AT Tel Aviv University Ltd., published 2005).
